Construct, isoform or probe ends are uncertain for at least one entry. Negatives hold for the conditions tested. Tags and fusion partners may be left off the protein sequences shown.
Molecular target: T1, FAR (FXR, OR2.8) (Rattus norvegicus) (UniProt Q62735)
T1 sequence: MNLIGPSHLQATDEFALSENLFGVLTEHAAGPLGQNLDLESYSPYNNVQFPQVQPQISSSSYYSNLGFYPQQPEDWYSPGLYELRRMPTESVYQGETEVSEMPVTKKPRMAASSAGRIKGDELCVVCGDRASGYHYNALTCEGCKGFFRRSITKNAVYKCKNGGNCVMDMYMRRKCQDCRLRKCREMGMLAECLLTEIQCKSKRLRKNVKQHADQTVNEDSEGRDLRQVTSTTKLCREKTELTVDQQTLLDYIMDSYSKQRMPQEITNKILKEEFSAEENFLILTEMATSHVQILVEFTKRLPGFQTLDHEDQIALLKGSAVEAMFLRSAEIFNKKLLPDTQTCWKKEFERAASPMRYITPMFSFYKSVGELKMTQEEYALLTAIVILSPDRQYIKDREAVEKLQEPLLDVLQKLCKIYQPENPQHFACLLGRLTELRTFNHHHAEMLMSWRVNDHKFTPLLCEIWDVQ
Assay: EMSA
Settings: protein translated in vitro; protein details: rabbit reticulocyte lysate TNT, Promega; label: 32P (Klenow)

GGTTCAATGCACT (double strand) [hsp27-EcRE]
binding result: no binding

Source: US6005086, “Farnesoid activated receptor polypeptides, and nucleic acid encoding the same” (The Salk Institute for Biological Studies)
